Measurements as given in patent publication US12019067B2, “Interferometry based systems to detect small mass changes of an object in a solution” (NantBio, Inc., priority 2020, dated 2024).
At least one structure is not confirmed: it was looked up by name or label, or the drawing left a doubt.

How the values were obtained:
MM.1R and MM.1S cells = assay: Multiple myeloma combinatorial screening of therapeutics by LCI, 96 well plate; assay type: cell-based, human; settings: 3 concentrations per drug, quadruplicate
Protocol: In this example, 6 therapeutics at 3 different concentrations, were added in quadruplicate to a 96 well plate. Thus, there were 19 different conditions: bortezomib (20, 5, 1.25 nM); carlifomib (50, 10, 2 nM); dexamethasone (300, 100, 33.3 nM); lenalidomide (50, 10, 2 nM); panobinostat (50, 10, 2 nM); pomalidomide (50, 10, 2 nM); and DMSO (300 nM) as a negative control. In clinical practice, the actual drugs/combinations may be provided by the clinician.
In this study, a large number of cells (12,000 total cells) were screened to identify optimal drugs and concentrations. This assay, while performed on MM.1R and MM.1S cells may be performed on any suitable cell type (e.g., patient derived cancer cells from multiple myeloma, breast cancer, lung cancer, etc.). For multiple myeloma cells, a protocol for CD138+ cell enrichment from patient bone marrow is provided in the art.
FIGS. 25B, 25C, and 25D show the results of this assay, in graphical, dot box, and table format respectively, in which multiple “best treatments” were identified using this system.

[1] = system: mixed MM.1S and MM.1R cells; assay: LCI growth of mixed populations of sensitive and resistant cells with dexamethasone; assay type: cell-based, human; settings: 200 nM dexamethasone, only 25% of cells sensitive
MM.1S = settings: reported; cited from earlier work

Row | Structure (SMILES) | overall result: response (MM.1R and MM.1S cells) | overall result: titration effect (MM.1R and MM.1S cells) | growth rate versus control cells in mixed population [1] | IC50 (MM.1S)
1 | C[C@@H]1C[C@H]2[C@@H]3CCC4=CC(=O)C=C[C@]4(C)[C@@]3(F)[C@@H](O)C[C@]2(C)[C@@]1(O)C(=O)CO [dexamethasone] | good response | no titration effect | statistically significant difference from control cells | 200 nM
2 | Cc1[nH]c2ccccc2c1CCNCc1ccc(/C=C/C(=O)NO)cc1 [panobinostat] | good response | no titration effect | – | –
